Measurements as given in publication doi:10.1101/2021.02.14.429938.
Results are given in words; binding and its absence hold for the method and conditions named. Binding seen in cells or lysates may run through a third protein. Some results given as binding are weak or reduced against the parent protein; the word gives no strength. Sequences can lack the tags named with a protein.

Chains of the proteins cited; added tags and fusions are not shown.
UniProt Q61686: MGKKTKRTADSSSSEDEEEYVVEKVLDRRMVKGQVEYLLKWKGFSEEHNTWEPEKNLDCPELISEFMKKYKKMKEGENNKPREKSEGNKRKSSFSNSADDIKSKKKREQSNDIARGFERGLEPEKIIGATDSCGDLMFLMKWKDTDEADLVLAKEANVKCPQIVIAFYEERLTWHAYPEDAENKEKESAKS
UniProt P09405: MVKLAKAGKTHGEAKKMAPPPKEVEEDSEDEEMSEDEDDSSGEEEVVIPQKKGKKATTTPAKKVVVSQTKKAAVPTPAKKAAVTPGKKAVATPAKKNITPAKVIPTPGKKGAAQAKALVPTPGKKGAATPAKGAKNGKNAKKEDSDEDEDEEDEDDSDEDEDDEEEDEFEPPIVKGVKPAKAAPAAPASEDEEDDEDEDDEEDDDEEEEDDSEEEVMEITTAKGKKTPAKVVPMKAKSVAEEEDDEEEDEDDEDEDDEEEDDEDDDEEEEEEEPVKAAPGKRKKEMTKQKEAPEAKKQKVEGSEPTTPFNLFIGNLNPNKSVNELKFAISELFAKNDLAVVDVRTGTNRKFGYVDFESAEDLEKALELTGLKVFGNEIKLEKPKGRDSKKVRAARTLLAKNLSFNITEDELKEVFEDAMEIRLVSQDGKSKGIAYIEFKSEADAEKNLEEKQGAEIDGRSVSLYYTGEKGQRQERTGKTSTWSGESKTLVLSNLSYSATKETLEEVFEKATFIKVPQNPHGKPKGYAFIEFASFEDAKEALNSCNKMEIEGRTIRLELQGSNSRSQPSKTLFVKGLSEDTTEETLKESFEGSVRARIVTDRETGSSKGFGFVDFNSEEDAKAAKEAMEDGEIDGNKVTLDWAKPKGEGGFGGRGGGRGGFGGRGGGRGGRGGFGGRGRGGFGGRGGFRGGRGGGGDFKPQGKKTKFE

Molecular target: T1, Stag1 (mouse (endogenous in E14 ES cells)) (UniProt Q9D3E6)
T1 sequence: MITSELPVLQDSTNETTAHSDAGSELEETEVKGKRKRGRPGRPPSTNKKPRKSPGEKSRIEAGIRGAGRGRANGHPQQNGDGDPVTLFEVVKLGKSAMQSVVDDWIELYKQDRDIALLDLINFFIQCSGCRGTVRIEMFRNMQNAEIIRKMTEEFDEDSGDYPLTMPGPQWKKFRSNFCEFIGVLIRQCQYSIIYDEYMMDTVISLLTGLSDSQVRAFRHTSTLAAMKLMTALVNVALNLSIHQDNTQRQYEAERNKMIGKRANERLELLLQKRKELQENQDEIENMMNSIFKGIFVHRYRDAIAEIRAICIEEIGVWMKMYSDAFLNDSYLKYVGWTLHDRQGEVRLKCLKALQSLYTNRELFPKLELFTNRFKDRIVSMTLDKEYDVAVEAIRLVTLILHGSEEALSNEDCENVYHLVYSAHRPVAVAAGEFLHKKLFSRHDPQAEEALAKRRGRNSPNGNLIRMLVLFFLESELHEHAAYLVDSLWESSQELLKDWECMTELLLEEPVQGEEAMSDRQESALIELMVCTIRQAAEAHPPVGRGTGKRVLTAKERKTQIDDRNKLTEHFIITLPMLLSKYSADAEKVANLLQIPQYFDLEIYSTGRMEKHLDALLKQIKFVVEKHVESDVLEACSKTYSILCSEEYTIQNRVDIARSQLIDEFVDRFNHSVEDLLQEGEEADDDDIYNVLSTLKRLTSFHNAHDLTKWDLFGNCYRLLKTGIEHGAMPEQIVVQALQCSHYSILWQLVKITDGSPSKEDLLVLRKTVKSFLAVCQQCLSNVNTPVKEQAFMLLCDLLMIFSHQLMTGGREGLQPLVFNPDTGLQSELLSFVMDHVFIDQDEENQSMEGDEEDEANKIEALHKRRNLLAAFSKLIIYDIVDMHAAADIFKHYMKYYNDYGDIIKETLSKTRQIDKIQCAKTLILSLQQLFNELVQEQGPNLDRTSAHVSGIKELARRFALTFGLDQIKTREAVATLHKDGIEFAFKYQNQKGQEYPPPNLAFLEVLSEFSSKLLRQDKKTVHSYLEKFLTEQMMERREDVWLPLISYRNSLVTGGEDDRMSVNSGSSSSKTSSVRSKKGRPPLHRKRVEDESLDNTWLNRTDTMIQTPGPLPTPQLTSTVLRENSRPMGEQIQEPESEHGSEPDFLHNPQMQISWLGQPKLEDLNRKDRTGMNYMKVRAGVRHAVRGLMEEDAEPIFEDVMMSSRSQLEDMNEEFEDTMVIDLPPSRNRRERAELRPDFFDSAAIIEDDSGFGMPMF
Test: co-IP

binding | Substance
binds | Heterochromatin Protein 1 alpha (from UniProt Q61686 1-191)
binds | Nucleolin (from UniProt P09405 1-707)
